From patent US20230406936A1 (IMMUNOURCHIN, published 2023) come the findings set out here.

Protein sequences, listed by entry. Tags and fused reporters are not part of them. Lines headed by an entry give the natural chain unless they say otherwise; changes in a name come on top.
UniProt Q9NZQ7: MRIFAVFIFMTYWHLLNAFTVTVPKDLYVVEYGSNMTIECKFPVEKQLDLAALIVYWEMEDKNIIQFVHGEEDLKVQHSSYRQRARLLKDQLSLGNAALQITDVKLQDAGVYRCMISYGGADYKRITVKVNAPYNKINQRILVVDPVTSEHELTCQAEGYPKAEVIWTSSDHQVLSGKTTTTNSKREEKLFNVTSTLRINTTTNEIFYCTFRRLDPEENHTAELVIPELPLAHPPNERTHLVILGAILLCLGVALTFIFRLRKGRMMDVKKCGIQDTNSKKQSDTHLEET

The target in test [1] is recombinant PD-L1-9-HIS (secretory splice variant PD-L1-9 with HIS tag, from HEK293 cells) (human) (UniProt Q9NZQ7). The test is described as follows: direct ELISA, 50 ng/well rPD-L1-9-HIS coated, 100 ng/well antibody.
For test [2], the target named is native form of secretory sPD-L1-9, in culture supernatant of transfected MC38 cells (human) (UniProt Q9NZQ7). The test is described as follows: indirect (sandwich) ELISA with MC38 culture supernatant containing sPD-L1-9.
For test [3] the target is unchanged. The test can be described thus: ELISA with MC38 culture supernatant containing native sPD-L1-9.

No constants are given. Whether binding was seen depends on the method and setting. Some binding calls cover weakened binding; strength is not graded here.

B1: PD-L1 mouse monoclonal antibody #19 (antibody, mouse IgG2b, V domains shown)
VH: EVQLQQSGPELVKPGASVKISCKASGSAFSSSWMNWLKQRPGQGLEWIGRIYPGDGDTNYNGKFKGKATLTADKSSSTAYMQLSSLTSVDSAVYFCARRRANHYGSNWYFDVWGAGTTVTVSS
VL: NIVLTQSPASLAVSLGQRATISCRASESVDSYGKSFMHWYQQKPGQPPKLLIYLASNLESGVPARFSGSGSRTDFTLTIDPVEADDAATYYCQQNNEDPYTFGGGTKLEIK
notes: also called mAb #19; Ab #19
On to B1, for which the binding entry in test [1] and in test [2] was “binds” throughout.

B2: humanized PD-L1 antibody H6L2 (humanized mouse monoclonal antibody #19, VH6 + VL2) (antibody, V domains shown)
VH: EVQLQQSGAEVKKPGSSVKVSCKASGSAFSSSWMNWLKQRPGQGLEWIGRIYPGDGDTNYNGKFKGRVTLTADKSSSTAYMQLSSLRSEDTAVYFCARRRANHYGSNWYFDVWGAGTTVTVSS
VL: NIVLTQSPSSLSASVGDRVTITCRASESVDSYGKSFMHWYQQKPGQPPKLLIYLASNLESGVPSRFSGSGSRTDFTLTISSLQPEDFATYYCQQNNEDPYTFGGGTKLEIK
notes: also called humanized antibody H6L2; humanized antibody #19
Regarding B2, in test [3], the binding entry is “binds”.
